Source: PMC4712783
These are yes or no findings as the source states them, for the method shown. Binding can be weak; no strength is given.

Chains of the proteins cited; added tags and fusions are not shown. Lines headed by an entry give the natural chain unless they say otherwise; changes in a name come on top.
UniProt Q9UNA1: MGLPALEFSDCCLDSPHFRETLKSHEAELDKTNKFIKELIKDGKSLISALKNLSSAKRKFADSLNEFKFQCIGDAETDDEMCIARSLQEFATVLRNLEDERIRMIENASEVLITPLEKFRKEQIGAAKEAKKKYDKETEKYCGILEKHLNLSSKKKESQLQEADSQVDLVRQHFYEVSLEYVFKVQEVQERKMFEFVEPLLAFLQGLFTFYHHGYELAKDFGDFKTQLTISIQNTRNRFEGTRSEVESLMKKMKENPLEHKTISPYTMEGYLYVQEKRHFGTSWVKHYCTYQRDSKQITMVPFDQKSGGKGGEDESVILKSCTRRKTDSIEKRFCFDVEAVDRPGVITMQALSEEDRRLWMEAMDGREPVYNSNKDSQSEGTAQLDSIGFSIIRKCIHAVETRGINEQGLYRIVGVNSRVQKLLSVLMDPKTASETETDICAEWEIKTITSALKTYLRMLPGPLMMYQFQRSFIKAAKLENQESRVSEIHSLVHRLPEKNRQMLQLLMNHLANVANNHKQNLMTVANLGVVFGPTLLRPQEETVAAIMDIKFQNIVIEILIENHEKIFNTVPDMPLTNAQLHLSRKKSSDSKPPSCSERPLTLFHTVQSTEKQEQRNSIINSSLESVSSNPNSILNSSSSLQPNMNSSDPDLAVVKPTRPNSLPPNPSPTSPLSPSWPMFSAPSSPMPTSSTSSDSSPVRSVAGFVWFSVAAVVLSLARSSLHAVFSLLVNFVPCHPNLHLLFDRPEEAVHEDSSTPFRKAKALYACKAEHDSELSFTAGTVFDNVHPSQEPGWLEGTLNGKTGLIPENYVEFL
UniProt P60953: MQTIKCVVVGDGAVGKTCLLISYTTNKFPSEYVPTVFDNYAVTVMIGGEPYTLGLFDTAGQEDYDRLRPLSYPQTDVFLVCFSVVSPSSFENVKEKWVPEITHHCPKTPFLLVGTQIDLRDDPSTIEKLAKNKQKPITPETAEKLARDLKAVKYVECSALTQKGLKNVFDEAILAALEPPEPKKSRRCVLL

Legend:
[1] = target: GST-tagged GRAF1 GAP domain (UniProt Q9UNA1); assay: pull-down; GST-tagged GAP domain on glutathione-Sepharose 4B beads as bait, purified Cdc42 proteins loaded with GDP in the presence of AlFx (1 mM AlCl3, 25 mM NaF) as prey; 1-3 h at 4°C under rotation; bound and unbound fractions on Coomassie-stained SDS-PAGE; both purified
[2] = target: GST-tagged GRAF1 GAP domain (UniProt Q9UNA1); assay: pull-down; GST-tagged GAP domain on glutathione-Sepharose 4B beads as bait, purified Cdc42 proteins loaded with GTPγS as prey; 1-3 h at 4°C under rotation; bound and unbound fractions on Coomassie-stained SDS-PAGE; both purified

Row | Substance | binding [1] | binding [2]
1 | Cdc42-Q61L, purified (from UniProt P60953 1-191) | binds | binds
2 | Cdc42 (wild type), purified (from UniProt P60953 1-191) | binds | 
